Reference: PubChem BioAssay AID743454 (Peter MacCallum Cancer Centre, 2014)
Shown is an unselected part of about 18,000 reagents. 450 of all reagents (2.5%) were called active. 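Single biological run; no consistent viability z cut-off exists, so the class columns, not z-scores, define the calls.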

- Test: 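Genes whose loss kills vorinostat-resistant colon cancer cells under vorinostat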 (primary screen)
- System: human HCT116-VR colon cancer cells, selected for vorinostat resistance
- Reagent: siRNA pool against human genes, 40 nM siRNA pool
- Time to read-out: vorinostat for 24 h, read-out about 72 h after transfection
- Challenge: vorinostat at 2.5 µM final
- Read-out: 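Two measures, CellTiter-Fluor viability and luminescent caspase 3/7 activity, each as fold change against same-plate mock wells, mean of duplicates, then screen-wide robust z-score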
- Reading the numbers: viability robust z-score: higher = more viable cells than screen typical; caspase robust z-score: higher = more caspase 3/7 activity than screen typical
- Hit rule: 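Hits are knock-downs in viability class RV1/RV2 or caspase class CA1/CA2, excluding ones that killed cells in the no-drug cell-count arm; hits then retested with single siRNAs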

Against ATP13A3 (ATPase 13A3), the entry reads viability hit class no change; caspase hit class no change; viability robust z-score 0.6; caspase robust z-score 0.08; inactive.
COX7C (cytochrome c oxidase subunit 7C) gave viability hit class no change; caspase hit class no change; viability robust z-score 0.26; caspase robust z-score 0.29; inactive.
PPIL6 (peptidylprolyl isomerase like 6) showed viability hit class no change; caspase hit class no change; viability robust z-score 1.05; caspase robust z-score 0.01; inactive.
Depletion of SYNRG (synergin gamma) came out at: viability hit class no change; caspase hit class no change; viability robust z-score -0.08; caspase robust z-score 0.59; inactive.
SARAF (store-operated calcium entry associated regulatory factor) scored viability hit class no change; caspase hit class no change; viability robust z-score 2.23; caspase robust z-score -0.58; inactive.
For PROX2 (prospero homeobox 2), the values are viability hit class no change; caspase hit class no change; viability robust z-score -0.91; caspase robust z-score -0.29; inactive.
Depletion of SULT1B1 (sulfotransferase family 1B member 1) gave: viability hit class no change; caspase hit class no change; viability robust z-score 0.16; caspase robust z-score 1.47; inactive.
Silencing of POLR3GL (RNA polymerase III subunit GL) came out at: viability hit class no change; caspase hit class no change; viability robust z-score 1.36; caspase robust z-score 0.86; inactive.
Silencing of SPRR4 (small proline rich protein 4) resulted in: viability hit class no change; caspase hit class no change; viability robust z-score 0.64; caspase robust z-score -0.43; inactive.
Silencing of AK7 (adenylate kinase 7) came out at: viability hit class no change; caspase hit class no change; viability robust z-score -1.86; caspase robust z-score 0.68; inactive.
Knock-down of PNMT (phenylethanolamine N-methyltransferase) gave: viability hit class no change; caspase hit class no change; viability robust z-score -1.21; caspase robust z-score 3.18; inactive.
Silencing of USP26 (ubiquitin specific peptidase 26) came out at: viability hit class no change; caspase hit class no change; viability robust z-score 0.22; caspase robust z-score -0.4; inactive.
Depletion of SMOC1 (SPARC related modular calcium binding 1) came out at: viability hit class no change; caspase hit class no change; viability robust z-score 2.04; caspase robust z-score 1.47; inactive.
Against CD244 (CD244 molecule), the entry reads viability hit class no change; caspase hit class no change; viability robust z-score 0.48; caspase robust z-score 0.67; inactive.
Against TRIM50 (tripartite motif containing 50) the deposit lists viability hit class no change; caspase hit class no change; viability robust z-score 0.7; caspase robust z-score -0.56; inactive.
Knock-down of RAB11A (RAB11A, member RAS oncogene family) came out at: viability hit class no change; caspase hit class no change; viability robust z-score -0.86; caspase robust z-score -0.06; inactive.
With knock-down of NEUROD1 (neuronal differentiation 1), the record shows viability hit class no change; caspase hit class no change; viability robust z-score -0.51; caspase robust z-score 0.5; inactive.
Against CUTC (cutC copper transporter) the deposit lists viability hit class no change; caspase hit class no change; viability robust z-score 0.5; caspase robust z-score -1.23; inactive.
RAB6B (RAB6B, member RAS oncogene family) scored viability hit class no change; caspase hit class no change; viability robust z-score -0.24; caspase robust z-score -1; inactive.
With knock-down of UBE2D2 (ubiquitin conjugating enzyme E2 D2), the record shows viability hit class no change; caspase hit class no change; viability robust z-score -0.05; caspase robust z-score -1.4; inactive.
After knock-down of TMEM106B (transmembrane protein 106B), the screen gave viability hit class no change; caspase hit class no change; viability robust z-score 0.3; caspase robust z-score 0.16; inactive.

No new results follow: entries from further up.
AK7 (adenylate kinase 7): viability hit class = no change; caspase hit class = no change; viability robust z-score = -1.86; caspase robust z-score = 0.68; Call = inactive
PNMT (phenylethanolamine N-methyltransferase): viability hit class = no change; caspase hit class = no change; viability robust z-score = -1.21; caspase robust z-score = 3.18; Call = inactive
